Data published in the supplement of paper PMC10849652.
The other results are listed elsewhere or left out.

The chains behind the UniProt entries cited, without tags or fusion partners. Where a name states a change or a piece, a line headed by the entry shows the natural chain unless it says otherwise.
UniProt Q13185: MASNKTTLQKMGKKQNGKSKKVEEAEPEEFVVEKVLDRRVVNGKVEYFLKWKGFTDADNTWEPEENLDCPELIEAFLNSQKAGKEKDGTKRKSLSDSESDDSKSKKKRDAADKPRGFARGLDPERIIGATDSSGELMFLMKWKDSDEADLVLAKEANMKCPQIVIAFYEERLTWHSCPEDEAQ
UniProt P78371: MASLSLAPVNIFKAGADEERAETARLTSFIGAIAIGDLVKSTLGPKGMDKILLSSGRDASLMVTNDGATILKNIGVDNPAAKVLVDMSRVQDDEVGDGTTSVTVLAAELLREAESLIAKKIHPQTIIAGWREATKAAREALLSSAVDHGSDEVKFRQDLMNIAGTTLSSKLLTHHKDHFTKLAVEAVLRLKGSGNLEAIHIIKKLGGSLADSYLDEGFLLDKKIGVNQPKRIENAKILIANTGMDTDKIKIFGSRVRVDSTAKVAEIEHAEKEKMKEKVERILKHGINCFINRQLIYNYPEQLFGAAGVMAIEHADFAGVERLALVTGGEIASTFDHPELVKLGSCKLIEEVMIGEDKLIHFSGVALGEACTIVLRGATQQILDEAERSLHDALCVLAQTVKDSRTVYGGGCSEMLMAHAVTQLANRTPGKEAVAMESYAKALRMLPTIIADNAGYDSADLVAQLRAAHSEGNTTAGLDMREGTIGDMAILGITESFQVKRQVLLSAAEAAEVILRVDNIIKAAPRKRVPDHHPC
UniProt P42574: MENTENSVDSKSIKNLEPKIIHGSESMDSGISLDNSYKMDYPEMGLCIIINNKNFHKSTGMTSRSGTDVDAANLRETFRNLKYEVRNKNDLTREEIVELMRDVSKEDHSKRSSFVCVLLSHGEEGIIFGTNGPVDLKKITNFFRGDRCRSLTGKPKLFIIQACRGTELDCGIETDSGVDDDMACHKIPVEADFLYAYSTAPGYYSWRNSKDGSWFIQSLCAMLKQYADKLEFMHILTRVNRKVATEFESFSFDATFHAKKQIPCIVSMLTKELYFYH
UniProt P04040: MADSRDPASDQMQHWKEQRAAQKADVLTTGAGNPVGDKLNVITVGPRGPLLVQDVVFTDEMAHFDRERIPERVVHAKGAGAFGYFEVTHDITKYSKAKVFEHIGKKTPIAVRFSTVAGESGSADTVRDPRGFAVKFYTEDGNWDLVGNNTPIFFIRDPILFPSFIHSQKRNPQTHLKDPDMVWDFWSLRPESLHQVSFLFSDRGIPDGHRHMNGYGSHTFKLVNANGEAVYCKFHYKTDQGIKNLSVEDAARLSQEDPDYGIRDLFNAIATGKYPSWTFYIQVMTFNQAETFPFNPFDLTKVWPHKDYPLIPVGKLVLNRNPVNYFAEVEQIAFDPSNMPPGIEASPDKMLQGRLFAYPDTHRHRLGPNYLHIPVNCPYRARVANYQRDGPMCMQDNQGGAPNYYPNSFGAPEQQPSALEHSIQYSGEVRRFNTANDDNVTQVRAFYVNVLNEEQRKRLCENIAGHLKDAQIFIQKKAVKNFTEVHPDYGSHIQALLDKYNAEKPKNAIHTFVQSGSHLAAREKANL
UniProt O75909: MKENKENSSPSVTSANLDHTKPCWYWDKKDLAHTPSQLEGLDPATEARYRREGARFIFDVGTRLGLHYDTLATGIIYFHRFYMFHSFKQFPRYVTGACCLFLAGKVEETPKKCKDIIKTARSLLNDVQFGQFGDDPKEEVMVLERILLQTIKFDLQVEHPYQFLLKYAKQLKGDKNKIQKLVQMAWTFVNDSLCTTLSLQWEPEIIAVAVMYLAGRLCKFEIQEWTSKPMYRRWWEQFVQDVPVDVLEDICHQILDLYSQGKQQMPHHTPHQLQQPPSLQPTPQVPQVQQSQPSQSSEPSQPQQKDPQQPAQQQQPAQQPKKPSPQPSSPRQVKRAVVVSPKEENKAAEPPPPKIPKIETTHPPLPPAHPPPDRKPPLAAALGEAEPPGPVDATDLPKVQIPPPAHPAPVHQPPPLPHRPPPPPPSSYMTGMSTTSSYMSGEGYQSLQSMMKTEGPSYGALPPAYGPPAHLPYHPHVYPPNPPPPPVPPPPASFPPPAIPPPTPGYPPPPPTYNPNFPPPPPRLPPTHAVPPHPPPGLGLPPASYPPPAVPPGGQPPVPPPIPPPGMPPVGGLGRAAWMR
UniProt Q8WUD4: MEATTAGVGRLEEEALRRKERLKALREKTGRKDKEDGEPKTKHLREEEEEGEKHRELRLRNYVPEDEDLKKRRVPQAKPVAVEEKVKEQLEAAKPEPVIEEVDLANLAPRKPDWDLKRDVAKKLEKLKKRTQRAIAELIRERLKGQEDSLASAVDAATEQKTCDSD
UniProt Q567U6, whole entry, looked up: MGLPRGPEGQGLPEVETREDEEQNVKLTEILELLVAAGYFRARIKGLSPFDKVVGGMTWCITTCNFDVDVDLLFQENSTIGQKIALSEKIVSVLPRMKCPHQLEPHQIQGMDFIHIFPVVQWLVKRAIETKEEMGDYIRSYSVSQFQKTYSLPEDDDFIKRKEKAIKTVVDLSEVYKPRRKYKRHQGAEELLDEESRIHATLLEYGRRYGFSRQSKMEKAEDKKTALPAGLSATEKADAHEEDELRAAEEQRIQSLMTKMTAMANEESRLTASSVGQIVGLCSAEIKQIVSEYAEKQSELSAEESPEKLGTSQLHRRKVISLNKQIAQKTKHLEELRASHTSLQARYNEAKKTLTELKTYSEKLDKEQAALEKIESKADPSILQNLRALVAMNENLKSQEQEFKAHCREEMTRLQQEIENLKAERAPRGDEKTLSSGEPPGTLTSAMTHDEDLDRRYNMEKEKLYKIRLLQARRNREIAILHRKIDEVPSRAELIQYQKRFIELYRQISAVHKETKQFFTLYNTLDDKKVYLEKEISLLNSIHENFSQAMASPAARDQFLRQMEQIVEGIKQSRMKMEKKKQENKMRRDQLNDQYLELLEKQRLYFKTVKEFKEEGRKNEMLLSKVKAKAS
UniProt Q96F63: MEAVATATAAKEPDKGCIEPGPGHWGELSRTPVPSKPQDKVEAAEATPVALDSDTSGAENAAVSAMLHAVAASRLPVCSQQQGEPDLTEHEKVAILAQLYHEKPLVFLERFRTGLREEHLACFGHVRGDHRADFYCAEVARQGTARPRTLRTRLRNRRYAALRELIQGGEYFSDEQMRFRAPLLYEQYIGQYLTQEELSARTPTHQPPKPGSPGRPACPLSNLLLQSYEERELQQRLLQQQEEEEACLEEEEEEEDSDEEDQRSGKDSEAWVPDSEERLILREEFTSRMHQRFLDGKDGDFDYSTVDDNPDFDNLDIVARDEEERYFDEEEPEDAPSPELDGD
UniProt Q9HA77: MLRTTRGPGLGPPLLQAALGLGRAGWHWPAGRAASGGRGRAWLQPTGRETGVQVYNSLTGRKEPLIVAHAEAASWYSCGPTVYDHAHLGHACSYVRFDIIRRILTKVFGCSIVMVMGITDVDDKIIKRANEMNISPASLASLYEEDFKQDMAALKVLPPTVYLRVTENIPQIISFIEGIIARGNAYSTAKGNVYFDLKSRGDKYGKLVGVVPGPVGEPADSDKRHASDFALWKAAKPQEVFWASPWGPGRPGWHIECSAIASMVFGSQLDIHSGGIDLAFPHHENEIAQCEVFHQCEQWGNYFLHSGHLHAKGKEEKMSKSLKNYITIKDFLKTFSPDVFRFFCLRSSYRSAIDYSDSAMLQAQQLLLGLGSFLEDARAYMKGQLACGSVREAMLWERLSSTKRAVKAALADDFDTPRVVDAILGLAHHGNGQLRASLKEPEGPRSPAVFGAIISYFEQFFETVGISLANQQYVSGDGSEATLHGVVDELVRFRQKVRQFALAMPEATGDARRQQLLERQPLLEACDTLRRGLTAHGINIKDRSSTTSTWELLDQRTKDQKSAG
UniProt Q8IX12: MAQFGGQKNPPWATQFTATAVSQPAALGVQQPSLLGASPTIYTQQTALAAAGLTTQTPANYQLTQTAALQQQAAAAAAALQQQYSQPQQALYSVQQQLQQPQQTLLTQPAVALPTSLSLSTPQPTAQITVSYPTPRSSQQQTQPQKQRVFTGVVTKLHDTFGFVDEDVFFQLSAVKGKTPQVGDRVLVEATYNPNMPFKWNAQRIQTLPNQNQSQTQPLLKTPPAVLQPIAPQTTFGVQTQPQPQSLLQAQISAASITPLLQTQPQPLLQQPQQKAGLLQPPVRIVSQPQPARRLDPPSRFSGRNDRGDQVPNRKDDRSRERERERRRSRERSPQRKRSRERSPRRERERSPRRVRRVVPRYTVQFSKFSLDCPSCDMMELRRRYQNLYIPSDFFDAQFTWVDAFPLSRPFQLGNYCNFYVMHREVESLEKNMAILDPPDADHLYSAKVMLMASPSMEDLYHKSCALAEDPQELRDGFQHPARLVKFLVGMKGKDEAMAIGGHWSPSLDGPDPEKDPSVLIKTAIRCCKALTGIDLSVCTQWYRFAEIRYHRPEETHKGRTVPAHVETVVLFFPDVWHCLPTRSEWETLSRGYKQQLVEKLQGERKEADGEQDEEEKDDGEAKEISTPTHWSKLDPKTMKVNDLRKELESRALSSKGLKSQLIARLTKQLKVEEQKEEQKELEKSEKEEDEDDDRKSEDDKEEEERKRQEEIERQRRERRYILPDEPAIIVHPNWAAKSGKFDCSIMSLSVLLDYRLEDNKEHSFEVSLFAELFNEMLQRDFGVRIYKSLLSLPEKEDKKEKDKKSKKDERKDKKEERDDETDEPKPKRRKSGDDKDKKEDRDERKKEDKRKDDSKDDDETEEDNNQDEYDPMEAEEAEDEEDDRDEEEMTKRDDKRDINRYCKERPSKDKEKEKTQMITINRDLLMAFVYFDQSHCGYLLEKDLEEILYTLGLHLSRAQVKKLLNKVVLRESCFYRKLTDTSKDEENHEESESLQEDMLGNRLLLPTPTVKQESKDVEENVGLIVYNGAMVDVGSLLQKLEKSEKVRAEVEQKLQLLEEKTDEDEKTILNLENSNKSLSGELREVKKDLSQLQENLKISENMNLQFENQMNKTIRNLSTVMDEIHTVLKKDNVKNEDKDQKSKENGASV
UniProt O95273: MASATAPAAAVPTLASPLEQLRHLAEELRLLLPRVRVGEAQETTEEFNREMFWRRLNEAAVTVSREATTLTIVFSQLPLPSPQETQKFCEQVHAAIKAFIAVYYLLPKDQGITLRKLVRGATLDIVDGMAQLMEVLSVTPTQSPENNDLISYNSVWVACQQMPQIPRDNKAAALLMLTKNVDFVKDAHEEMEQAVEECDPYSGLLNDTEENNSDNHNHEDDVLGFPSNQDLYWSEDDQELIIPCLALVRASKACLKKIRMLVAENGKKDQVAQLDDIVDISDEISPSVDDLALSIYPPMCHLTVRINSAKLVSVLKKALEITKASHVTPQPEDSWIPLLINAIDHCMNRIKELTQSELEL
UniProt P48509: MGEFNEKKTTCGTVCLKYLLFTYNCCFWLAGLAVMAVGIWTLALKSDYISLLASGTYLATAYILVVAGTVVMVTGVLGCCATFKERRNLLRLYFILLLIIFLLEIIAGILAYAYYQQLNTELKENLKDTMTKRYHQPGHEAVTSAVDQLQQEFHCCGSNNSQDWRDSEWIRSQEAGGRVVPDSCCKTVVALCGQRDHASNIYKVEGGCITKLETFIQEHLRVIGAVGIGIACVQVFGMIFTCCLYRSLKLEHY
UniProt Q8IWD4: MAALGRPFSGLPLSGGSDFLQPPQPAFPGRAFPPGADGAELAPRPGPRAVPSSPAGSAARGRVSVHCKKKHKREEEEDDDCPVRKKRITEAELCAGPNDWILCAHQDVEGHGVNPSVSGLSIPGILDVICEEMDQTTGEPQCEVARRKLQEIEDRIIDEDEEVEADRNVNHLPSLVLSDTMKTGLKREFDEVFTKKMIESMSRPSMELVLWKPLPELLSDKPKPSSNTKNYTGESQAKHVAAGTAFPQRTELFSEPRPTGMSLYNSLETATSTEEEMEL
UniProt P48643, whole entry, looked up: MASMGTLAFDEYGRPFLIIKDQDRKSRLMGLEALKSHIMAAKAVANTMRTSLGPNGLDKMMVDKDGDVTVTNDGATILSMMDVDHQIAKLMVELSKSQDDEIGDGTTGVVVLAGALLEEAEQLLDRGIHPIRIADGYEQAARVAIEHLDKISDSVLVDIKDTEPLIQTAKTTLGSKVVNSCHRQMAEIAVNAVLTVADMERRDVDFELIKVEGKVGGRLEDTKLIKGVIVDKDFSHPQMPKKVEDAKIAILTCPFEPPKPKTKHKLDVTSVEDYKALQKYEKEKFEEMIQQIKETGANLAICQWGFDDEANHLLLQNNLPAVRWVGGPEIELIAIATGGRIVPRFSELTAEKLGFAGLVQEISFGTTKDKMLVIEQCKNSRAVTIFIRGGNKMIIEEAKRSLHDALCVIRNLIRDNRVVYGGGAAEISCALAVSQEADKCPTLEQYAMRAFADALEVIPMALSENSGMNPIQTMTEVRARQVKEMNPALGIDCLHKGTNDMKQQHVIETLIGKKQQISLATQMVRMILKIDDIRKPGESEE
UniProt Q9Y2V2: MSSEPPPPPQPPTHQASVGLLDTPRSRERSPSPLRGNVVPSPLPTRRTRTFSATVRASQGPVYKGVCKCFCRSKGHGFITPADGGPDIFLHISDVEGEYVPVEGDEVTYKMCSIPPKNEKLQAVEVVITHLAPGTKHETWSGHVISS

Compound: Cc1ncc(-c2ccnc(Nc3ccc(S(C)(=O)=O)cc3)n2)n1C(C)C
Assay: log2 fold change, soluble protein after heating vs DMSO (PISA); higher = thermal stabilisation; K562 lysate, 10 uM; active = over 0.2 and 3.5 SD of the protein, either way, in both replicates (recomputed)
Outline: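 Dounce homogenisation of K562 pellets in PBS pH 7.4 with 1 mM MgCl2 produced a crude extract, used at 1 mg/mL protein. Exposure to 10 μM compound lasted 30 min, and aliquots were then heated for 3 min across 48°C-58°C, pooled and brought to 0.5% NP-40 at 4°C. The supernatant after 21,000xg for 90 min was quantified by TMTpro 16plex LC-MS/MS with channel sums equalised. Duplicate values are given as log-two fold change in thermal stability relative to solvent controls.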

Target | log2 fold change
CD46 isoform 2 (UniProt P15529) | inactive: -0.046
CCNB2 (UniProt O95067) | active: 0.21
CBX3 (UniProt Q13185) | inactive: 0.066
CCT2 (UniProt P78371) | inactive: 0.005
CASP3 (UniProt P42574) | inactive: 0.023
CCNB1 (UniProt P14635) | active: 0.369
CAT (UniProt P04040) | inactive: 0.011
CCT6A (UniProt P40227) | inactive: -0.007
CASP9 (UniProt P55211) | inactive: -0.012
CCDC58 (UniProt Q4VC31) | inactive: -0.013
CD47 (UniProt Q08722) | inactive: 0
CCNK isoform 4 (UniProt O75909) | inactive: -0.009
CCDC12 (UniProt Q8WUD4) | inactive: 0.063
CCDC93 (UniProt Q567U6) | inactive: -0.012
CBX4 (UniProt O00257) | inactive: 0.041
CCDC25 (UniProt Q86WR0) | inactive: -0.021
CCDC88A (UniProt Q3V6T2) | inactive: -0.024

Target | log2 fold change
CCDC88C (UniProt Q9P219) | inactive: 0.113
CCDC22 (UniProt O60826) | inactive: -0.005
CCDC97 (UniProt Q96F63) | inactive: 0.02
CCNYL1 (UniProt Q8N7R7) | inactive: 0.043
CBLB (UniProt Q13191) | inactive: 0.124
CAVIN1 (UniProt Q6NZI2) | inactive: 0.026
CBWD5 (UniProt Q5RIA9) | inactive: 0.004
CARS2 (UniProt Q9HA77) | inactive: 0.048
CCAR1 (UniProt Q8IX12) | inactive: -0.005
CCNDBP1 (UniProt O95273) | inactive: -0.013
CCS (UniProt O14618) | inactive: -0.051
CD151 (UniProt P48509) | inactive: -0.214
CCDC6 (UniProt Q16204) | inactive: -0.011
CCDC117 (UniProt Q8IWD4) | inactive: 0.024
CCT5 (UniProt P48643) | inactive: -0.002
CARHSP1 (UniProt Q9Y2V2) | inactive: -0.004

Random excerpt: 2 records from the list, in no set order.
Target | log2 fold change
CCNDBP1 (UniProt O95273) | inactive: -0.013
CD151 (UniProt P48509) | inactive: -0.214
